Results deposited as PubChem BioAssay AID1224830 (NIAID, 2016).
This is an unselected part of about 18,000 deposited reagents. About 2,900 of them (16%) were called active. 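Calls are made per well; low scores hint the gene aids the LPS response, high scores that it dampens it.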 A number with no mark means an inactive call. Repeated entries: four replicate wells of each siRNA pool.

Test: 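Regulators of TLR4 signalling towards TNF-alpha in macrophage-like cells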 (primary screen)
Cell system: human THP-1 monocytic leukaemia cells, TNF dual-luciferase reporter clone, PMA-differentiated to macrophage-like cells
Knock-down reagent: siRNA pool against human genes, 50 nM
Duration: LPS for 4 h, given about 3 days after siRNA transfection
Challenge: bacterial LPS (TLR4 ligand), 10 ng/ml
Detection: 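TNF firefly reporter luminescence divided by renilla, normalised to the plate median, then turned into a robust z-score for each replicate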
Reading the numbers: TNF reporter robust z-score: higher = stronger TNF reporter response to LPS
Rule for the call: 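Each well counts as active if its z-score is over 2.8 or under -1.5; controls are left without a call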

target,TNF reporter robust z-score
DIMT1 (DIM1 rRNA methyltransferase and ribosome maturation factor),-1.27
DIMT1 (DIM1 rRNA methyltransferase and ribosome maturation factor),-0.81
DIMT1 (DIM1 rRNA methyltransferase and ribosome maturation factor),-1.12
DIMT1 (DIM1 rRNA methyltransferase and ribosome maturation factor),1.18
DDB2 (damage specific DNA binding protein 2),1.09
DDB2 (damage specific DNA binding protein 2),1.16
DDB2 (damage specific DNA binding protein 2),0.81
DDB2 (damage specific DNA binding protein 2),1.92
KCNG4,1.82
KCNG4,0.86
KCNG4,0.89
KCNG4,1.73
MRPL4 (mitochondrial ribosomal protein L4),-1
MRPL4 (mitochondrial ribosomal protein L4),-0.87
MRPL4 (mitochondrial ribosomal protein L4),-0.83
MRPL4 (mitochondrial ribosomal protein L4),-0.31
RICTOR (RPTOR independent companion of MTOR complex 2),1
RICTOR (RPTOR independent companion of MTOR complex 2),1.07
RICTOR (RPTOR independent companion of MTOR complex 2),1.02
RICTOR (RPTOR independent companion of MTOR complex 2),3.46 (active)
ATE1 (arginyltransferase 1),0.57
ATE1 (arginyltransferase 1),1.17
ATE1 (arginyltransferase 1),-0.27
ATE1 (arginyltransferase 1),0.75
ARL17B (ARF like GTPase 17B),0.18
ARL17B (ARF like GTPase 17B),0.31
ARL17B (ARF like GTPase 17B),0.96
ARL17B (ARF like GTPase 17B),0.41
TPD52L2 (TPD52 like 2),-0.08
TPD52L2 (TPD52 like 2),1.96
TPD52L2 (TPD52 like 2),0.8
TPD52L2 (TPD52 like 2),0.16
FOXE3 (forkhead box E3),-0.58
FOXE3 (forkhead box E3),0.59
FOXE3 (forkhead box E3),0.05
FOXE3 (forkhead box E3),0.91
EEF1AKMT1 (EEF1A lysine methyltransferase 1),-0.4
EEF1AKMT1 (EEF1A lysine methyltransferase 1),-0.35
EEF1AKMT1 (EEF1A lysine methyltransferase 1),-1.54 (active)
EEF1AKMT1 (EEF1A lysine methyltransferase 1),-1.13
OR2AG2 (olfactory receptor family 2 subfamily AG member 2),-0.71
OR2AG2 (olfactory receptor family 2 subfamily AG member 2),-0.05
OR2AG2 (olfactory receptor family 2 subfamily AG member 2),-0.67
OR2AG2 (olfactory receptor family 2 subfamily AG member 2),0.31
"NT5C1B (5'-nucleotidase, cytosolic IB)",0.67
"NT5C1B (5'-nucleotidase, cytosolic IB)",0.34
"NT5C1B (5'-nucleotidase, cytosolic IB)",0.24
"NT5C1B (5'-nucleotidase, cytosolic IB)",1.38
AMIGO2 (adhesion molecule with Ig like domain 2),0.25
AMIGO2 (adhesion molecule with Ig like domain 2),1.07
AMIGO2 (adhesion molecule with Ig like domain 2),0.28
AMIGO2 (adhesion molecule with Ig like domain 2),0.76
RNF144B (ring finger protein 144B),-0.49
RNF144B (ring finger protein 144B),-0.21
RNF144B (ring finger protein 144B),-0.29
RNF144B (ring finger protein 144B),0.41
MON2 (MON2 regulator of endosome-to-Golgi trafficking),-0.84
MON2 (MON2 regulator of endosome-to-Golgi trafficking),0.15
MON2 (MON2 regulator of endosome-to-Golgi trafficking),1.42
MON2 (MON2 regulator of endosome-to-Golgi trafficking),-0.06
TGFBRAP1,-0.01
TGFBRAP1,0.5
TGFBRAP1,2.48
TGFBRAP1,2.24
GTF3A (general transcription factor IIIA),-0.68
GTF3A (general transcription factor IIIA),0.66
GTF3A (general transcription factor IIIA),0.22
GTF3A (general transcription factor IIIA),1.07

Records above marked active, once more:
target,TNF reporter robust z-score
RICTOR (RPTOR independent companion of MTOR complex 2),3.46 (active)
EEF1AKMT1 (EEF1A lysine methyltransferase 1),-1.54 (active)

More entries follow.
target,TNF reporter robust z-score
UQCC2 (ubiquinol-cytochrome c reductase complex assembly factor 2),-1.32
UQCC2 (ubiquinol-cytochrome c reductase complex assembly factor 2),-0.23
UQCC2 (ubiquinol-cytochrome c reductase complex assembly factor 2),-1.17
UQCC2 (ubiquinol-cytochrome c reductase complex assembly factor 2),0.43
YWHAZ,0.3
YWHAZ,0.21
YWHAZ,-0.08
YWHAZ,-0.55
CAP1 (cyclase associated actin cytoskeleton regulatory protein 1),2.74
CAP1 (cyclase associated actin cytoskeleton regulatory protein 1),-0.09
CAP1 (cyclase associated actin cytoskeleton regulatory protein 1),-0.67
CAP1 (cyclase associated actin cytoskeleton regulatory protein 1),-0.38
"KHDC4 (KH domain containing 4, pre-mRNA splicing factor)",1.26
"KHDC4 (KH domain containing 4, pre-mRNA splicing factor)",0.95
"KHDC4 (KH domain containing 4, pre-mRNA splicing factor)",0.12
"KHDC4 (KH domain containing 4, pre-mRNA splicing factor)",-0.87
SKAP1 (src kinase associated phosphoprotein 1),-1.19
SKAP1 (src kinase associated phosphoprotein 1),-1.17
SKAP1 (src kinase associated phosphoprotein 1),-1.33
SKAP1 (src kinase associated phosphoprotein 1),-0.27
AP1AR,0.65
AP1AR,0.21
AP1AR,0.5
AP1AR,0.01
HDAC3 (histone deacetylase 3),-0.46
HDAC3 (histone deacetylase 3),0.18
HDAC3 (histone deacetylase 3),-0.55
INAVA (innate immunity activator),2.12
INAVA (innate immunity activator),0.55
INAVA (innate immunity activator),1.85
INAVA (innate immunity activator),1.14
CFAP54 (cilia and flagella associated protein 54),-0.07
CFAP54 (cilia and flagella associated protein 54),-0.48
CFAP54 (cilia and flagella associated protein 54),0.25
CFAP54 (cilia and flagella associated protein 54),0.81
SF3B4 (splicing factor 3b subunit 4),0.59
SF3B4 (splicing factor 3b subunit 4),0.91
SF3B4 (splicing factor 3b subunit 4),0.36
SF3B4 (splicing factor 3b subunit 4),-0.03
WWC3 (WWC family member 3),-1.22
WWC3 (WWC family member 3),0.91
WWC3 (WWC family member 3),0.51
WWC3 (WWC family member 3),0.25
